No constants are given. Whether binding was seen depends on the method and setting. In cells and extracts the contact can be indirect. Some entries that bind do so weakly or less than the wild type.
Target: T1, STING (mouse (endogenous in BMDMs of C57BL/6 mice)) (UniProt Q3TBT3)
T1 sequence: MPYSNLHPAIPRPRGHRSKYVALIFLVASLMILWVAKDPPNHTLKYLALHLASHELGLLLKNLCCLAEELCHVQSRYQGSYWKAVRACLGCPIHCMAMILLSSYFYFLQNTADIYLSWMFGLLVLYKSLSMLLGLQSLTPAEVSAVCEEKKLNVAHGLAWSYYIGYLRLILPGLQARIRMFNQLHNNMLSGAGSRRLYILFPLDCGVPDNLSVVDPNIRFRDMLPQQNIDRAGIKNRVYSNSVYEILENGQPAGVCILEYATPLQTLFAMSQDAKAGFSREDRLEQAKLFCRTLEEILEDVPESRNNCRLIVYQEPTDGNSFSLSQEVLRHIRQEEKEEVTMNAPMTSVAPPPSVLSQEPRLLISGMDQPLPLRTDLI
Experiment: co-IP; BMDM lysate (700 ug) immunoprecipitated with anti-STING antibody (5 ug) on rProtein A/G magnetic beads, 4°C, 16 h; blots with anti-ULK1 and anti-STING

B1: ULK1 (protein, UniProt O70405 1-1051)
chain: MEPGRGGVETVGKFEFSRKDLIGHGAFAVVFKGRHREKHDLEVAVKCINKKNLAKSQTLLGKEIKILKELKHENIVALYDFQEMANSVYLVMEYCNGGDLADYLHTMRTLSEDTVRLFLQQIAGAMRLLHSKGIIHRDLKPQNILLSNPGGRRANPSNIRVKIADFGFARYLQSNMMAATLCGSPMYMAPEVIMSQHYDGKADLWSIGTIVYQCLTGKAPFQASSPQDLRLFYEKNKTLVPAIPRETSAPLRQLLLALLQRNHKDRMDFDEFFHHPFLDASTPIKKSPPVPVPSYPSSGSGSSSSSSSASHLASPPSLGEMPQLQKTLTSPADAAGFLQGSRDSGGSSKDSCDTDDFVMVPAQFPGDLVAEAASAKPPPDSLLCSGSSLVASAGLESHGRTPSPSPTCSSSPSPSGRPGPFSSNRYGASVPIPVPTQVHNYQRIEQNLQSPTQQQTARSSAIRRSGSTTPLGFGRASPSPPSHTDGAMLARKLSLGGGRPYTPSPQVGTIPERPSWSRVPSPQGADVRVGRSPRPGSSVPEHSPRTTGLGCRLHSAPNLSDFHVVRPKLPKPPTDPLGATFSPPQTSAPQPCPGLQSCRPLRGSPKLPDFLQRSPLPPILGSPTKAGPSFDFPKTPSSQNLLTLLARQGVVMTPPRNRTLPDLSEASPFHGQQLGSGLRPAEDTRGPFGRSFSTSRITDLLLKAAFGTQASDSGSTDSLQEKPMEIAPSAGFGGTLHPGARGGGASSPAPVVFTVGSPPSGATPPQSTRTRMFSVGSSSSLGSTGSSSARHLVPGACGEAPELSAPGHCCSLADPLAANLEGAVTFEAPDLPEETLMEQEHTETLHSLRFTLAFAQQVLEIAALKGSASEAAGGPEYQLQESVVADQISQLSREWGFAEQLVLYLKVAELLSSGLQTAIDQIRAGKLCLSSTVKQVVRRLNELYKASVVSCQGLSLRLQRFFLDKQRLLDGIHGVTAERLILSHAVQMVQSAALDEMFQHREGCVPRYHKALLLLEGLQHTLTDQADIENIAKCKLCIERRLSALLSGVYA
**Q.** For B1, which binding is on record?
**A.** The binding was “binds”.

Source: paper PMC11742833
